These results are taken from PMC5467174.

The chains behind the UniProt entries cited, without tags or fusion partners.
UniProt Q9UKV8: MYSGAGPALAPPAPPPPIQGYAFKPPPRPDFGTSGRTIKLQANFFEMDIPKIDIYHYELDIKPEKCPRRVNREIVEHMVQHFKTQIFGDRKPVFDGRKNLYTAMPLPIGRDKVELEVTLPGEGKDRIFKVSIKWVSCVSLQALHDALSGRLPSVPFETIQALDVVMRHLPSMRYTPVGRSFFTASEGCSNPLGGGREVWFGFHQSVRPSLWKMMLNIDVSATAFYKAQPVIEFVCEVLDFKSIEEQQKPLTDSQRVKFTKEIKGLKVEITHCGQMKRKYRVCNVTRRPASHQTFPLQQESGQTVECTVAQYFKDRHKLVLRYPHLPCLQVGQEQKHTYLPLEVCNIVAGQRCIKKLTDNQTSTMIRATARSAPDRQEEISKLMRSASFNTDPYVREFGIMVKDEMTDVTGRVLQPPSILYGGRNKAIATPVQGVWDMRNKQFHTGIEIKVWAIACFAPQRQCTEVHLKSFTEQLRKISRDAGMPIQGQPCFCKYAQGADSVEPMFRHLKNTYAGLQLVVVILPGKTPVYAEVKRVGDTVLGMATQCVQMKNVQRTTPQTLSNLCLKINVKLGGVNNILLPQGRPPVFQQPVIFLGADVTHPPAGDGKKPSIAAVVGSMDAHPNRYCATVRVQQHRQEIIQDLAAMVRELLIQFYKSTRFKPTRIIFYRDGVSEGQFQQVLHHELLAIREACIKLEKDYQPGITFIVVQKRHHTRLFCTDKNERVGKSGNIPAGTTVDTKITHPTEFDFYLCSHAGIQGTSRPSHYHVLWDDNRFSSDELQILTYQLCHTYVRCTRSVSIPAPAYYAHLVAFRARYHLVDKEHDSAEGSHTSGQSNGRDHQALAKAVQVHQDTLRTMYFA
UniProt Q9UPY3: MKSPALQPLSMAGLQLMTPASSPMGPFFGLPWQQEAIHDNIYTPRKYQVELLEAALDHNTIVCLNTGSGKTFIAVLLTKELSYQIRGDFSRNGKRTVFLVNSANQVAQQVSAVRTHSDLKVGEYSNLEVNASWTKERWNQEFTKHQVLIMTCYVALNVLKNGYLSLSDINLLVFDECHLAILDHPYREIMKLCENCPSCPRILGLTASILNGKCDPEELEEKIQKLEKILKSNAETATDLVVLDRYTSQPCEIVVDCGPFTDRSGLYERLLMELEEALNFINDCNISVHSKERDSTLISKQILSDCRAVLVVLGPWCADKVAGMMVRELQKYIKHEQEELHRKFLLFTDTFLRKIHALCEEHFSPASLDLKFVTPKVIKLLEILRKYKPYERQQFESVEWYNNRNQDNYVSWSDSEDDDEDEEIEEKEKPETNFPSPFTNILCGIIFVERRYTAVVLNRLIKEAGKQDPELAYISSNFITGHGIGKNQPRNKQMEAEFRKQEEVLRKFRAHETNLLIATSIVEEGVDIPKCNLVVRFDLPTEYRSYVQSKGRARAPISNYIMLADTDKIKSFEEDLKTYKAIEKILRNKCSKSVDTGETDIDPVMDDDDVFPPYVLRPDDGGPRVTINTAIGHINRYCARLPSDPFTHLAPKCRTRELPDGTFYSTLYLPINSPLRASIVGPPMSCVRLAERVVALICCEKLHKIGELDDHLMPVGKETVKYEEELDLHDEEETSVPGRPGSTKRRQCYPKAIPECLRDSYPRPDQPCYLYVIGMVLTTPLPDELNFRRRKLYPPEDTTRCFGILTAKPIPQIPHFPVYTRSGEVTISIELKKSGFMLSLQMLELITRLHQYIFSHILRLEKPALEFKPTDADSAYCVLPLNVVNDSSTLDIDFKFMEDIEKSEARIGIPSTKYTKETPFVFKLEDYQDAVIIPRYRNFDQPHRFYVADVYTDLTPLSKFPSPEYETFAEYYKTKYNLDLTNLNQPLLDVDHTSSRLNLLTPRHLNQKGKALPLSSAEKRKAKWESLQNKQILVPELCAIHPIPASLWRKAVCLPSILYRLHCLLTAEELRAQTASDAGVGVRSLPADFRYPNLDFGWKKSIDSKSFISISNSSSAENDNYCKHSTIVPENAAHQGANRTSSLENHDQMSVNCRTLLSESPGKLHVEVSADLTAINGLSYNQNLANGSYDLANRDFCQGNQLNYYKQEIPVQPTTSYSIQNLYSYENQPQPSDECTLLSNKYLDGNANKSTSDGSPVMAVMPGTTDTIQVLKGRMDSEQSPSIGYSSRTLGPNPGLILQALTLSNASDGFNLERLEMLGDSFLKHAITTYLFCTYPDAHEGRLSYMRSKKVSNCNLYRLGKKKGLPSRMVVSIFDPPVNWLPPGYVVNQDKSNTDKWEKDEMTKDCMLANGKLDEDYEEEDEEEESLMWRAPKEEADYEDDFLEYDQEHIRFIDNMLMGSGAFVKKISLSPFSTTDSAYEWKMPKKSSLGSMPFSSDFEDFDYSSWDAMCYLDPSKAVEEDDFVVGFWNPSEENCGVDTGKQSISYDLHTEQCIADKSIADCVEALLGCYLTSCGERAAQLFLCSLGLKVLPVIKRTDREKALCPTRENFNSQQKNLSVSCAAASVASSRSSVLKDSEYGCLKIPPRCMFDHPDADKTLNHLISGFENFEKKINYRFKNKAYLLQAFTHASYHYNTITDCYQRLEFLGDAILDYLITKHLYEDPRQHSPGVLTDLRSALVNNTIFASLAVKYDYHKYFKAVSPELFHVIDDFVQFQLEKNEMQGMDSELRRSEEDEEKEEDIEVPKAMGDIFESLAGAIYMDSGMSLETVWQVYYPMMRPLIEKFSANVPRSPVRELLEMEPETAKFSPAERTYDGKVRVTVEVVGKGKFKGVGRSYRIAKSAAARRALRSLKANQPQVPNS
UniProt Q9HCJ0: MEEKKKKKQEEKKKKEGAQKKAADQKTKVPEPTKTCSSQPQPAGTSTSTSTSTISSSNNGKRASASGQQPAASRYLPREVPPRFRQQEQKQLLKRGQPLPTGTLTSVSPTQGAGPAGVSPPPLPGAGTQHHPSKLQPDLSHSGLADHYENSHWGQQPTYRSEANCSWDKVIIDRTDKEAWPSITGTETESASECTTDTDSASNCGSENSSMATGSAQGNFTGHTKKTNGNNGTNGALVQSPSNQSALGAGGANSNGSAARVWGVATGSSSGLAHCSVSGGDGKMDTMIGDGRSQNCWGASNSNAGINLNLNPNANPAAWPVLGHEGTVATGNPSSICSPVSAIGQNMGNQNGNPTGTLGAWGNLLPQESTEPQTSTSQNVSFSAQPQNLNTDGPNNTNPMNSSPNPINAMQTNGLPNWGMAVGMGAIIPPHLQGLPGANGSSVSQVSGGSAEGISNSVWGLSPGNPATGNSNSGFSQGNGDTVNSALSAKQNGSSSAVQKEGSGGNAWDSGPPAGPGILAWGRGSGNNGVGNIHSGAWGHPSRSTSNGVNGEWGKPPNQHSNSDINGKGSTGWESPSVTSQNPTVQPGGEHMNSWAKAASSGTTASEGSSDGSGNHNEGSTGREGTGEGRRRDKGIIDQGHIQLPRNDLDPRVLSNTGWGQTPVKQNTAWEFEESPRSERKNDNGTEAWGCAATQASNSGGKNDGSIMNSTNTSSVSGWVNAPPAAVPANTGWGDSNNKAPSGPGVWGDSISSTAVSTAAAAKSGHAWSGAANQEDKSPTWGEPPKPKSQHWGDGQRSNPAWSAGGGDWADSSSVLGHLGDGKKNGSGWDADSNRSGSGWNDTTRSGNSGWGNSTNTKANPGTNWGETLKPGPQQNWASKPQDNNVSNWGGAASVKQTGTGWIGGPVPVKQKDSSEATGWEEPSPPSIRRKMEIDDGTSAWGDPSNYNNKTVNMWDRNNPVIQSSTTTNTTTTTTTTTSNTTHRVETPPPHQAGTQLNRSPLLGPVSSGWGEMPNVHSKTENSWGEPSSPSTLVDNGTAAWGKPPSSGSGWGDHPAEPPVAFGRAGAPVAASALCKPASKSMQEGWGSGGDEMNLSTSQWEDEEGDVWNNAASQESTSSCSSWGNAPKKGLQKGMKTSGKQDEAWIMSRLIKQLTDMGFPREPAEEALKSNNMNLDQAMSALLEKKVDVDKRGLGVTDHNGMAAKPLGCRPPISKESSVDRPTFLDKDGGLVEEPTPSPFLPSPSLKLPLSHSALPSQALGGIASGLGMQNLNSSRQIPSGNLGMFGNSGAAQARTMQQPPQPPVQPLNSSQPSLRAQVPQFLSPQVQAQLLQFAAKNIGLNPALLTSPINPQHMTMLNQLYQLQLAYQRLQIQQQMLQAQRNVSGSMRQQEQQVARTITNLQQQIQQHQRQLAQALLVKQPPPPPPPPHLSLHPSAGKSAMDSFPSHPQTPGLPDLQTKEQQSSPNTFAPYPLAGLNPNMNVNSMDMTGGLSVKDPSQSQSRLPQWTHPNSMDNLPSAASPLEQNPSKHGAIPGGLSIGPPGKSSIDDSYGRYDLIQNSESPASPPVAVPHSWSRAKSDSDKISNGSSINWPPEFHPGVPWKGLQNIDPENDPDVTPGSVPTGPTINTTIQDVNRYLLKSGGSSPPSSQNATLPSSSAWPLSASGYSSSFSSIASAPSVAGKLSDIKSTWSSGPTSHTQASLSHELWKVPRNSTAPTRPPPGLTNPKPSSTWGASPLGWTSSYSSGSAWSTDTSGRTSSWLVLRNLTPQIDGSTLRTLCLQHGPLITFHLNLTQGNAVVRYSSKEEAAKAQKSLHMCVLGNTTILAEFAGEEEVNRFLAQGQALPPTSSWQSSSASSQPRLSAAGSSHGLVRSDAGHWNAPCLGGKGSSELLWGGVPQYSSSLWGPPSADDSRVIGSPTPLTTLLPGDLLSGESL

This assay has as its target BirA*-Ago2 (UniProt Q9UKV8). Nature of the assay: proximity labelling; classical BioID with BirA*-Ago2 in a stable HeLa 11ht cell line; 50 μM biotin, 25 ng/ml doxycycline, 24 h; capture on streptavidin beads, MS.

No constants are given. Whether binding was seen depends on the method and setting. In cells and extracts the contact can be indirect. Here binding means that the protein was enriched with, or labelled near, the bait; the list need not be complete.

Take “Dicer (endogenous) (from UniProt Q9UPY3 1-1922) (enzyme)”: the binding entry is recorded as “binds”.
For “TNRC6C (endogenous) (from UniProt Q9HCJ0 1-1936)” the value was “binds”.
